Experimental data reported in patent US4061626A, “Somatostatin analogs and intermediates thereto” (Eli Lilly and Company, priority 1976, dated 1977).
At least one peptide structure holds a part that was inferred or is arguable (an end, a ring closure or a residue).

Assays:
gastric HCl secretion = experiment: in vivo inhibition of gastric acid secretion in dogs with chronic gastric fistula and Heidenhain pouch; settings: infused at 3 μg/kg-hr. for one hour, secretion induced by C-terminal tetrapeptide of gastrin 0.5 μg/kg-hr
Description: D-Lys^4 -somatostatin and D-Ala^2,D-Lys^4 -somatostatin also were tested in dogs for their in vivo inhibition of gastric acid secretion. In dogs with chronic gastric fistula and Heidenhain pouch, gastric HCl secretion was induced by infusion of the C-terminal tetrapeptide of gastrin at 0.5 μg/kg-hr. One dog served as control, receiving only the tetrapeptide. Another dog received the tetrapeptide and somatostatin while the test compound was administered to other dogs in place of somatostatin. After one hour of steady state secretion of HCl, somatostatin or the test compound was infused at 3 μg/kg-hr. for one hour. Collection of gastric acid samples was continued for an additional 1.5 hours at 15 minute intervals.

[1] = test system: glucagon and insulin secretion; experiment: in vivo inhibition of glucagon and insulin secretion upon stimulation with L-alanine; parameters: species or system mongrel dogs; settings: dogs, intravenous infusion 0.20-0.30 μg/kg./minute (D-Ala^2,D-Lys^4 -somatostatin at 0.253 μg/kg/min.)
Description: D-Ala^2,D-Lys^4 -somatostatin was tested for its in vivo activity in inhibiting glucagon and insulin secretion upon stimulation with L-alanine. Normal mongrel dogs of either sex were fasted overnight. Control blood samples were obtained, and then an intravenous infusion of saline, somatostatin, or D-Ala^2,D-Lys^4 -somatostatin was started. After 30 minutes, L-alanine additionally was administered intravenously for a period of 15 minutes. The infusion of saline, somatostatin, or D-Ala^2,D-Lys^4 -somatostatin was continued for 15 minutes after completion of the alanine infusion. The total dose of somatostatin or D-Ala^2,D-Lys^4 -somatostatin which was infused is 200-500 μg./dog (0.20-0.30 μg/kg./minute), and the total dose of L-alanine infused was 1 mmol/kg.

glucagon secretion = experiment: in vivo inhibition of glucagon secretion upon stimulation with insulin; parameters: species or system mongrel dogs; settings: dogs, insulin 0.3 units/kg. i.v.
Description: D-Lys^4 -somatostatin and D-Ala^2,D-Lys^4 -somatostatin also were evaluated for in vivo activity in inhibiting glucagon secretion upon stimulation with insulin. Normal mongrel dogs of either sex were fasted overnight. After control blood samples had been obtained, an intravenous infusion of saline, somatostatin, D-Lys^4 -somatostatin, or D-Ala^2,D-Lys^4 -somatostatin was commenced. After 15 minutes, insulin, 0.3 units/kg., was injected intravenously. The infusion of saline, somatostatin, or the test compound was continued for two hours, and blood samples were obtained at various intervals throughout the test. The total dose of the somatostatin or test compound ranged from 120-260 μg./dog (0.07-0.13 μg/kg/min.). Administration of insulin produced a reduction in the blood glucose concentration and an increase in serum glucagon concentration.

pancreatic secretion = experiment: inhibition of secretin-induced pancreatic secretion in dogs with pancreatic and total gastric fistula; type: in vivo; settings: 3 μg/kg-hr for one hour, secretin 0.5 unit/kg-hr.
Description: D-Ala^2,D-Lys^4 -somatostatin was also shown to inhibit pancreatic secretion. In three dogs having both pancreatic and total gastric fistula, secretion from the pancreas was induced by infusion of secretin at 0.5 unit/kg-hr. and gastric HCl by infusion of tetragastrin at 0.5 μg/kg-hr. After a steady response was established, administration of the test compound was begun. One of the dogs was retained as control, and, of the remaining two dogs, one received somatostatin and the other D-Ala^2,D-Lys^4 -somatostatin, each for one hour at 3 μg/kg-hr.Peak inhibitory effects expressed as percent changes over control are as follows: […]

growth hormone secretion = experiment: release of growth hormone in sodium pentobarbital-stimulated rats; type: in vivo, Spraque-Dawley rats
Description: D-Lys^4 -somatostatin and D-Ala^2,D-Lys^4 -somatostatin also were tested for their activity with respect to the release of growth hormone. The procedure which was employed is carried out using mature male Spraque-Dawley rats (Laboratory Supply Company, Indianapolis, Indiana). The test is a modification of the method of P. Brazeau, W. Vale, and R. Guilleman, Endocrinology, 94 184 (1974). In this assay, two sets, one comprising five groups of eight rats each and the other comprising three groups of eight rats each were employed. First, sodium pentobarbital was administered to all of the rats of a particular set to stimulate growth hormone secretion. In the set comprising five groups of eight rats, one group is the control group and received only saline. Two of the groups received somatostatin, one at 2 μg./rat, subcutaneously, and the other at 50 μg./rat, subcutaneously. The other two groups received D-Ala^2,D-Lys^4 -somatostatin, one at 2 μg./rat, subcutaneously and the other at 50 μg./rat, subcutaneously. The degree of inhibition of serum growth hormone concentration then was determined with respect to the control group, and the relative activities of D-Ala^2,D-Lys^4 -somatostatin and somatostatin itself were compared.
The other set of three groups of eight rats each was treated in the same manner as above, with the exception the D-Lys^4 -somatostatin was used in place of D-Ala^2,D-Lys^4 -somatostatin, and the test was carried out only at a 50 μg./rat dose level. The D-Lys^4 -somatostatin stimulated growth hormone secretion by about 8 percent over control, while somatostatin in this set inhibited growth hormone secretion by 70 percent over control.

growth hormone (GH) = settings: literature: Brazeau et al., Science, 179, 77 (1973); cited from earlier work

C[C@H](N)C(=O)NCC(=O)N[C@H]1CSSC[C@@H](C(=O)O)NC(=O)[C@H](CO)NC(=O)[C@H]([C@@H](C)O)NC(=O)[C@H](Cc2ccccc2)NC(=O)[C@H]([C@@H](C)O)NC(=O)[C@H](CCCCN)NC(=O)[C@H](Cc2c[nH]c3ccccc23)NC(=O)[C@H](Cc2ccccc2)NC(=O)[C@H](Cc2ccccc2)NC(=O)[C@H](CC(N)=O)NC(=O)[C@H](CCCCN)NC1=O [somatostatin, Somatostatin]
inhibition of gastric acid secretion relative to the control (gastric HCl secretion): 99.1% | effect on basal serum insulin concentration [1]: caused a decrease | effect on the rise in serum glucagon concentration during infusion of L-alanine ([1]; L-alanine 1 mmol/kg): inhibited the rise | effect on the rise in serum insulin concentration during infusion of L-alanine ([1]; L-alanine 1 mmol/kg): inhibited the rise | effect on the insulin-induced reduction of the blood glucose concentration (glucagon secretion; infusion 0.07-0.13 μg/kg/min.): no affect | effect on the increase in serum glucagon concentration produced by insulin administration (glucagon secretion; infusion 0.07-0.13 μg/kg/min. (D-Lys^4 at 0.150, D-Ala^2,D-Lys^4 at 0.114 μg/kg/min.)): blocked the increase | Pancreatic Secretion HCO3^-, peak inhibitory effect as percent change over control (pancreatic secretion): -85.1% | Pancreatic Secretion Protein, peak inhibitory effect as percent change over control (pancreatic secretion): -69.4% | Pancreatic Secretion Volume, peak inhibitory effect as percent change over control (pancreatic secretion): -72% | effect on growth hormone secretion (growth hormone secretion; 2 μg./rat, subcutaneously, set of five groups): no effect whatever | inhibition of growth hormone secretion (growth hormone secretion; 50 μg./rat, subcutaneously, set of five groups): 33% | inhibition of growth hormone secretion over control (growth hormone secretion; 50 μg./rat, set of three groups): 70% | activity in inhibiting the secretion of growth hormone (GH) (growth hormone (GH)): active in inhibiting the secretion of growth hormone
